Test results taken from the supplement of paper PMC12593923.

Assays:
Experiment in all cases: drug sensitivity score (DSS2, cytotoxicity, CellTox Green); higher = more cytotoxic / more sensitive; extreme values may be limits of the assay
Conditions in all cases: 72 h; doses 0.5, 1, 5 µM
Kuramochi = tested on: Kuramochi
OVCAR3 = tested on: OVCAR3
OVCAR4 = tested on: OVCAR4

SMILES | drug sensitivity score (Kuramochi) [DSS] | drug sensitivity score (OVCAR3) [DSS] | drug sensitivity score (OVCAR4) [DSS]
CC(C)(C)c1cc(-c2cc(-c3ccc(C(=O)O)cc3)ccc2OCCO)ccc1N1CCCC1 [Trifarotene] | 0 | 2.8 | 0
CN(CCOc1ccc(CC2SC(=O)NC2=O)cc1)c1ccccn1 (configuration not stated) [Rosiglitazone] | 0 | 0 | 0
O=C(O)c1cc(=O)c2c(OCC(O)COc3cccc4oc(C(=O)O)cc(=O)c34)cccc2o1 [Cromolyn (sodium)] | 0 | 0 | 0
CCOc1cc(/C=C2/C(=O)N(c3ccccc3)N=C2C)cc(Cl)c1OCC(=O)OC | 0 | 0 | 0
CCCCc1oc2ccc(NS(C)(=O)=O)cc2c1C(=O)c1ccc(OCCCN(CCCC)CCCC)cc1 [Dronedarone (Hydrochloride)] | 0.3 | 0.8 | 2.1
CCCCCCCCCCC[C@@H](C[C@@H]1OC(=O)[C@H]1CCCCCC)OC(=O)[C@H](CC(C)C)NC=O [Orlistat] | 0 | 0 | 0
O=C(O)Cc1ccccc1Nc1c(Cl)cccc1Cl [Diclofenac] | 0 | 0 | 0
COC1=CC(=O)C[C@@H](C)[C@]12Oc1c(Cl)c(OC)cc(OC)c1C2=O [Griseofulvin] | 0 | 0 | 0
Nc1c(Br)cc(Br)cc1CN[C@H]1CC[C@H](O)CC1 [Ambroxol] | 0 | 0 | 0
O=C(O)[C@H]1O[C@@H](Oc2cc3oc(-c4ccccc4)cc(=O)c3c(O)c2O)[C@H](O)[C@@H](O)[C@@H]1O [Baicalin] | 0 | 0 | 0
Cc1cn([C@H]2C=C[C@@H](CO)O2)c(=O)[nH]c1=O [Stavudine] | 0 | 0 | 0
Nc1ncn([C@H]2C[C@H](O)[C@@H](CO)O2)c(=O)n1 [Decitabine] | 0 | 0 | 0
CNC(=O)c1cc(Oc2ccc(NC(=O)Nc3ccc(Cl)c(C(F)(F)F)c3)c(F)c2)ccn1 [Regorafenib (Hydrochloride)] | 0 | 0 | 3.4
C=C1CC[C@@H]2[C@](C)(CO)[C@H](O)CC[C@@]2(C)[C@@H]1C/C=C1/C(=O)OC[C@H]1O [Andrographolide] | 0 | 0 | 0

3 entries already listed, sorted by SMILES length, falling:
SMILES | drug sensitivity score (Kuramochi) [DSS] | drug sensitivity score (OVCAR3) [DSS] | drug sensitivity score (OVCAR4) [DSS]
CCCCCCCCCCC[C@@H](C[C@@H]1OC(=O)[C@H]1CCCCCC)OC(=O)[C@H](CC(C)C)NC=O [Orlistat] | 0 | 0 | 0
CCCCc1oc2ccc(NS(C)(=O)=O)cc2c1C(=O)c1ccc(OCCCN(CCCC)CCCC)cc1 [Dronedarone (Hydrochloride)] | 0.3 | 0.8 | 2.1
O=C(O)Cc1ccccc1Nc1c(Cl)cccc1Cl [Diclofenac] | 0 | 0 | 0

Structures can show the parent of a compound that is named as a salt. Several reference drugs read as weak here; read low effects with care.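 OVCAR3, described as chemosensitive, is one of three high-grade serous ovarian cancer lines that differ in chemosensitivity. Toxicity was scaled from DMSO vehicle wells to fully lysed wells; scores came from fitted multi-dose response curves, and the authors treated scores above 5 as indicating drug sensitivity.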
